From the supplement of paper PMC10849652
Some of the results follow.

Amino acid sequences for entries named in this document (tags omitted). A change or cut given only in a name is not applied to a line headed by its entry.
UniProt Q9Y6C9: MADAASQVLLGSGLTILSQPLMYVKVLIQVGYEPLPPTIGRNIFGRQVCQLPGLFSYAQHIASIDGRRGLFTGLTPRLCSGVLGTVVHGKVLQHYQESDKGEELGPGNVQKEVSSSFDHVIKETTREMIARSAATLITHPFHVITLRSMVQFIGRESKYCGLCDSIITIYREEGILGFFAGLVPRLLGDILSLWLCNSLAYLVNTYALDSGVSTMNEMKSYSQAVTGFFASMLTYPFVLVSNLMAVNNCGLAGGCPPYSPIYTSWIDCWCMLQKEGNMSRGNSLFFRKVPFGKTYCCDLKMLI
UniProt P43246, whole entry, looked up: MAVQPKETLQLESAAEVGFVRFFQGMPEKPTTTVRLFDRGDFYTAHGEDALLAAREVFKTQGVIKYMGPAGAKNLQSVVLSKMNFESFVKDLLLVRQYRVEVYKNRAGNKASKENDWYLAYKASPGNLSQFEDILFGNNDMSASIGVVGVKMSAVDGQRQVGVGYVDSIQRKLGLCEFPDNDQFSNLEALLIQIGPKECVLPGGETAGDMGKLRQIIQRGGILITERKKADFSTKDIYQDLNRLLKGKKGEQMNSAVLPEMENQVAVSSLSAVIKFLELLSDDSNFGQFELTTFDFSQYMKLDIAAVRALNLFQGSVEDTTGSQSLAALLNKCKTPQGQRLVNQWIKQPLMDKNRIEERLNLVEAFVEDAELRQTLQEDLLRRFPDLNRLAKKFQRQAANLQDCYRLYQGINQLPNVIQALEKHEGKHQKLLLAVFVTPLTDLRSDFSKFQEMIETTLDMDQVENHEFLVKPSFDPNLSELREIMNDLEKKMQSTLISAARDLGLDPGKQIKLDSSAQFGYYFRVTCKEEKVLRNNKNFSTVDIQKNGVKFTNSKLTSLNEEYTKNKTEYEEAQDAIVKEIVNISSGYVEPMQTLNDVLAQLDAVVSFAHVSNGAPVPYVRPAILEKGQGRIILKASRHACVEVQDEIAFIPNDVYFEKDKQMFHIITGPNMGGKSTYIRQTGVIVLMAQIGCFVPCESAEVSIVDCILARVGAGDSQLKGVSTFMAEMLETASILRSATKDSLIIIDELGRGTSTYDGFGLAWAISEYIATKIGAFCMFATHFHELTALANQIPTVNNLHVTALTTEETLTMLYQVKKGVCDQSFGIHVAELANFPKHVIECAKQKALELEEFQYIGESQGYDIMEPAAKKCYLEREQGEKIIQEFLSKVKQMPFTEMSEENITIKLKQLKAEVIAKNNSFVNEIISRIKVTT
UniProt Q9BUK6: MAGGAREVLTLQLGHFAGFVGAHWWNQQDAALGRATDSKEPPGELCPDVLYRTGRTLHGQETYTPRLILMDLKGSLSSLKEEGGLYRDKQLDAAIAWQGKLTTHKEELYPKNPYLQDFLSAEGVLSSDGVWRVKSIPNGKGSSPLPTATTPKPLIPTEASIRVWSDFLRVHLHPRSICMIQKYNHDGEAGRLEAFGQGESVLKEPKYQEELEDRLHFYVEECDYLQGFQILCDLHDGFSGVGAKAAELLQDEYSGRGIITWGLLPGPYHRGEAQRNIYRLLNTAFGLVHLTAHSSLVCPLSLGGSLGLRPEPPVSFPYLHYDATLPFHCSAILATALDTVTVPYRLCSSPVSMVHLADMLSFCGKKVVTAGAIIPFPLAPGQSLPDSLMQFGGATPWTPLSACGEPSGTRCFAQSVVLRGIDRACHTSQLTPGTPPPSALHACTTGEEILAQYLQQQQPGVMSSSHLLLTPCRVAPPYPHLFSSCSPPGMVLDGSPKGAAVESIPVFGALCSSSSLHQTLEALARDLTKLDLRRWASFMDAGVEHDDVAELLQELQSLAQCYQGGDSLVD
UniProt Q8N5Y2: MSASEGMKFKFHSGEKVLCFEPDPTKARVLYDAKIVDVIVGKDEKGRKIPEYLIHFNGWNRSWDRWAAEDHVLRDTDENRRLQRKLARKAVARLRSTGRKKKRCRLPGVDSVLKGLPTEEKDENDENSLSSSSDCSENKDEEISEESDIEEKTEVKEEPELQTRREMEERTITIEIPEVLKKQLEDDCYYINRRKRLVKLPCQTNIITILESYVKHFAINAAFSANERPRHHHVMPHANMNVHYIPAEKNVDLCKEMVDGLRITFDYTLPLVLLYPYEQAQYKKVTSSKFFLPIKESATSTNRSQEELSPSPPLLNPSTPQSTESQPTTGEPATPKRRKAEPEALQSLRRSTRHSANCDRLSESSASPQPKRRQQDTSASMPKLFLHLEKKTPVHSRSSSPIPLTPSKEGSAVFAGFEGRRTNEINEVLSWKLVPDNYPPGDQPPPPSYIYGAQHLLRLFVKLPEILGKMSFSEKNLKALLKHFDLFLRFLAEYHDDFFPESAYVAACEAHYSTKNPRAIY
UniProt Q9NVV4: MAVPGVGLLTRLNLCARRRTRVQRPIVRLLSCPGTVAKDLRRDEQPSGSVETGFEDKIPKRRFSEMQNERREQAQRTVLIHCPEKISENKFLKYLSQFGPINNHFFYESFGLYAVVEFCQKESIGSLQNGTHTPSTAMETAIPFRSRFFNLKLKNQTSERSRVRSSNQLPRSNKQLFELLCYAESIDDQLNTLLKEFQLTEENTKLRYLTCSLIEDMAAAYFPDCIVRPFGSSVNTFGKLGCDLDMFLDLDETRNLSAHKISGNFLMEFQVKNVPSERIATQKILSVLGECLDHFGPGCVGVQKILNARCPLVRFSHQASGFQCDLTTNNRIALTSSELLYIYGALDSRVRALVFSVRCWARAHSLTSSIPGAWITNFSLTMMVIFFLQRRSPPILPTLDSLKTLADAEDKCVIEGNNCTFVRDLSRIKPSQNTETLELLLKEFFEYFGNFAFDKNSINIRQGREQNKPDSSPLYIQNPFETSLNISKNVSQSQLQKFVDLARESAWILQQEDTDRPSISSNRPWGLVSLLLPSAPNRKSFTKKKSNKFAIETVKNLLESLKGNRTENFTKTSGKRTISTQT
UniProt Q96E11: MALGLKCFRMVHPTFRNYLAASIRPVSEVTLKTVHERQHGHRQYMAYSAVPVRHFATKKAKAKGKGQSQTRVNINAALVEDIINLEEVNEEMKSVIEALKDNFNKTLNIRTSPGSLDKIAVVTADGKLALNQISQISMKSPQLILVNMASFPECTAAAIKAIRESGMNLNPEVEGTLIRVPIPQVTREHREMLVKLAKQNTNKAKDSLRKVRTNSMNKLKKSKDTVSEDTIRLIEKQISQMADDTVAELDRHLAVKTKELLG
MTHFD1, A0A384N5Y3, UniProt A0A384N5Y3, whole entry, looked up: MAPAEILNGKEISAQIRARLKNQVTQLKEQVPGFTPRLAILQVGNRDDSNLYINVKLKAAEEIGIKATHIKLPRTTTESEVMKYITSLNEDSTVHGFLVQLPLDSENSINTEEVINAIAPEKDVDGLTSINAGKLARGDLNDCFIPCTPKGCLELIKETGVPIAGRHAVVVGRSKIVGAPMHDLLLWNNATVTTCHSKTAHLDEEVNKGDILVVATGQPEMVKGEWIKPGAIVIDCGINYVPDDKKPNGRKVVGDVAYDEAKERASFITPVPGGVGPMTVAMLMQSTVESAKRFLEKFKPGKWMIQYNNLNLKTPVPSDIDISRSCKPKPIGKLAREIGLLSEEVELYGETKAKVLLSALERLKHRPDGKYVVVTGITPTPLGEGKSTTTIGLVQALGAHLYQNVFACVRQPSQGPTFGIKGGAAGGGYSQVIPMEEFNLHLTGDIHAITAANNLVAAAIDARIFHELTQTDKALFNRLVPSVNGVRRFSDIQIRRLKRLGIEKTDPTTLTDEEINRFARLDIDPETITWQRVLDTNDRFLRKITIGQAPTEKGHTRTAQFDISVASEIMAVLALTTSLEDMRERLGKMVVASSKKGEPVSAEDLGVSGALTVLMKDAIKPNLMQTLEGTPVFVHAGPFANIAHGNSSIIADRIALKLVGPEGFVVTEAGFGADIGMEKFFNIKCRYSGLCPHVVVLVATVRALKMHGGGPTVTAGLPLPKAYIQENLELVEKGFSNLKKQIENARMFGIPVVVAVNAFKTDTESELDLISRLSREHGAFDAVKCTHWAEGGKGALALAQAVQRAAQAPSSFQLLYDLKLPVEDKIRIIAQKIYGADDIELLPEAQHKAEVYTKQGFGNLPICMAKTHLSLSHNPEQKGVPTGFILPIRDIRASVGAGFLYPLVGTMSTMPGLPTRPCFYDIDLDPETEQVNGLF
UniProt P03915, whole entry, looked up: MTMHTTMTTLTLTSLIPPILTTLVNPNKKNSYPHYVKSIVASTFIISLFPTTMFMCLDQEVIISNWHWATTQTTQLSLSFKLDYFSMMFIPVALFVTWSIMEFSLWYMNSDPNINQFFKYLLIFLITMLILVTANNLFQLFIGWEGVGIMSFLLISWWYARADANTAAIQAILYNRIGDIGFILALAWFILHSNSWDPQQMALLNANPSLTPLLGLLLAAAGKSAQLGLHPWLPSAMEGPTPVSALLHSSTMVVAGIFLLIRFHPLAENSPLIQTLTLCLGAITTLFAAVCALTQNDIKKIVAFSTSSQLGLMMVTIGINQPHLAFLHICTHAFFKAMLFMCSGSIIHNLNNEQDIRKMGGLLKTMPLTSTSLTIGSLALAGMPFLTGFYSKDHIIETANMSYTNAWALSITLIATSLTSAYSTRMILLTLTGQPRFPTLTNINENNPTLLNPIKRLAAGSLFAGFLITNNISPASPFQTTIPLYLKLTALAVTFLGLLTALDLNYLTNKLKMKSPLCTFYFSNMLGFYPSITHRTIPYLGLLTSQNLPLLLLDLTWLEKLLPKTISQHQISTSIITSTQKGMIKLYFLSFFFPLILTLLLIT

Experiments:
Test in all cases: log2 fold change, soluble protein after heating vs DMSO (PISA); higher = thermal stabilisation; K562 lysate, 10 uM; active = over 0.2 and 3.5 SD of the protein, either way, in both replicates (recomputed)
alvocidib = compound: CN1CC[C@H](c2c(O)cc(O)c3c(=O)cc(-c4ccccc4Cl)oc23)[C@H](O)C1 [alvocidib]
Method in brief: (§1)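 Following dounce homogenisation of K562 pellets in PBS pH 7.4 with 1 mM MgCl2, crude extract at 1 mg/mL protein was incubated for 30 min with 10 μM compound. Aliquots were then heated for 3 min over 48°C-58°C and pooled, NP-40 was added to 0.5% at 4°C, and soluble protein was recovered as the supernatant at 21,000xg for 90 min. Channel-sum-equalised TMTpro 16plex LC-MS/MS quantified this protein. Each value, from duplicates, is a log-two fold change in thermal stability relative to solvent controls.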

Tubastatin A = compound: CN1CCc2c(c3ccccc3n2Cc2ccc(C(=O)NO)cc2)C1 [Tubastatin A]
Method in brief: as §1

[1] = compound: CNC(=O)C1=CC=CC=C1NC2=NC(=NC=C2Cl)NC3=C(C=C(C=C3)N4CCOCC4)OC
Method in brief: as §1

defactinib = compound: CNC(=O)c1ccc(Nc2ncc(C(F)(F)F)c(NCc3nccnc3N(C)S(C)(=O)=O)n2)cc1 [defactinib]
Method in brief: as §1

[2] = compound: CNc1nc(-c2ccc3c(N)n[nH]c3c2)cc(N2C[C@@H](C(=O)NC3CCCCC3)CC[C@H]2C)n1
Method in brief: as §1

encorafenib = compound: COC(=O)N[C@@H](C)CNc1nccc(-c2cn(C(C)C)nc2-c2cc(Cl)cc(NS(C)(=O)=O)c2F)n1 [encorafenib]
Method in brief: as §1

[3] = compound: COC(=O)[C@H](CCSC)NC(=O)C1=C(C=C(C=C1)NC[C@H](CS)N)C2=CC=CC=C2
Method in brief: as §1

alisertib = compound: COc1cc(Nc2ncc3c(n2)-c2ccc(Cl)cc2C(c2c(F)cccc2OC)=NC3)ccc1C(=O)O [alisertib]
Method in brief: as §1

[4] = compound: COc1cc2nc(-c3cc(F)ccc3O)nc(N[C@@H]3CNC[C@H]3C(C)(C)O)c2cc1OC
Method in brief: as §1

gefitinib = compound: COc1cc2ncnc(Nc3ccc(F)c(Cl)c3)c2cc1OCCCN1CCOCC1 [gefitinib]
Method in brief: as §1

lapatinib = compound: CS(=O)(=O)CCNCc1ccc(-c2ccc3ncnc(Nc4ccc(OCc5cccc(F)c5)c(Cl)c4)c3c2)o1 [lapatinib]
Method in brief: as §1

pictilisib = compound: CS(=O)(=O)N1CCN(Cc2cc3nc(-c4cccc5[nH]ncc45)nc(N4CCOCC4)c3s2)CC1 [pictilisib]
Method in brief: as §1

crizotinib = compound: C[C@@H](Oc1cc(-c2cnn(C3CCNCC3)c2)cnc1N)c1c(Cl)ccc(F)c1Cl [crizotinib]
Method in brief: as §1

[5] = compound: C[C@H](C1=CC=C(C=C1)C(=O)NC2=C3C=CNC3=NC=C2)N
Method in brief: as §1

duvelisib = compound: C[C@H](Nc1ncnc2nc[nH]c12)c1cc2cccc(Cl)c2c(=O)n1-c1ccccc1 [duvelisib]
Method in brief: as §1

gandotinib = compound: Cc1cc(Nc2cc(CN3CCOCC3)c3nc(C)c(Cc4ccc(Cl)cc4F)n3n2)n[nH]1 [gandotinib]
Method in brief: as §1

tozasertib = compound: Cc1cc(Nc2cc(N3CCN(C)CC3)nc(Sc3ccc(NC(=O)C4CC4)cc3)n2)n[nH]1 [tozasertib]
Method in brief: as §1

doramapimod = compound: Cc1ccc(-n2nc(C(C)(C)C)cc2NC(=O)Nc2ccc(OCCN3CCOCC3)c3ccccc23)cc1 [doramapimod]
Method in brief: as §1

bafetinib = compound: Cc1ccc(NC(=O)c2ccc(CN3CC[C@H](N(C)C)C3)c(C(F)(F)F)c2)cc1Nc1nccc(-c2cncnc2)n1 [bafetinib]
Method in brief: as §1

[6] = compound: Cc1cccc(CC(=O)N2CCc3c2ccc(-c2cn(C)c4ncnc(N)c24)c3F)n1
Method in brief: as §1

Measured: log2 fold change

MRPL33 (UniProt O75394)
inactive: alvocidib 0.004 | Tubastatin A 0.084 | [1] 0.126 | defactinib 0.11 | [2] 0.079 | encorafenib 0.036 | [3] 0.099 | alisertib -0.069 | [4] -0.057 | gefitinib 0.055 | lapatinib 0.081 | pictilisib -0.013 | crizotinib 0.079 | [5] 0.013 | duvelisib -0.189 | gandotinib 0.038 | tozasertib 0.023 | doramapimod -0.033 | bafetinib -0.003 | [6] -0.05

MTCH2 (UniProt Q9Y6C9)
inactive: alvocidib -0.032 | Tubastatin A -0.046 | [1] 0.043 | defactinib -0.003 | [2] 0.047 | encorafenib -0.01 | [3] 0.043 | alisertib 0.013 | [4] -0.062 | gefitinib -0.007 | lapatinib -0.023 | pictilisib -0.018 | crizotinib -0.059 | [5] -0.144 | duvelisib -0.011 | gandotinib 0.142 | tozasertib -0.028 | doramapimod 0.024 | bafetinib -0.04 | [6] 0.022

MRPS34 (UniProt P82930)
inactive: alvocidib 0.015 | Tubastatin A -0.089 | [1] 0.012 | defactinib 0.038 | [2] 0.009 | encorafenib 0.024 | [3] -0.006 | alisertib 0.001 | [4] -0.082 | gefitinib -0.012 | lapatinib 0.027 | pictilisib 0.023 | crizotinib 0.043 | [5] 0.06 | duvelisib -0.035 | gandotinib -0.048 | tozasertib 0.022 | doramapimod 0.046 | bafetinib 0.094 | [6] 0.01

MSH2 (UniProt P43246)
inactive: alvocidib 0.026 | Tubastatin A -0.105 | [1] -0.017 | defactinib 0.023 | [2] 0.007 | encorafenib 0.011 | [3] 0.061 | alisertib -0.011 | [4] -0.002 | gefitinib -0.007 | lapatinib -0.005 | pictilisib -0.003 | crizotinib -0.04 | [5] 0.028 | duvelisib -0.001 | gandotinib -0.068 | tozasertib 0.002 | doramapimod 0.013 | bafetinib -0.026 | [6] 0.002

MRPL48 (UniProt Q96GC5)
inactive: alvocidib 0.068 | Tubastatin A -0.058 | [1] -0.014 | defactinib 0.006 | [2] -0.017 | encorafenib 0.003 | [3] 0.052 | alisertib -0.02 | [4] -0.065 | gefitinib 0 | lapatinib -0.018 | pictilisib -0.044 | crizotinib -0.047 | [5] 0.017 | duvelisib -0.033 | gandotinib -0.115 | tozasertib -0.013 | doramapimod 0.022 | bafetinib 0.048 | [6] 0.023

MRPS26 (UniProt Q9BYN8)
inactive: alvocidib 0.016 | Tubastatin A 0.044 | [1] -0.043 | defactinib -0.045 | [2] -0.068 | encorafenib 0.051 | [3] -0.037 | alisertib -0.066 | [4] 0.244 | gefitinib 0.031 | lapatinib 0.052 | pictilisib 0.05 | crizotinib 0.042 | [5] -0.074 | duvelisib 0.028 | gandotinib 0.003 | tozasertib 0.031 | doramapimod 0.066 | bafetinib 0.081 | [6] 0.033

MRTO4 (UniProt Q9UKD2)
inactive: alvocidib 0.002 | Tubastatin A 0.021 | [1] -0.018 | defactinib 0.005 | [2] -0.054 | encorafenib 0.014 | [3] 0.027 | alisertib 0.026 | [4] 0.004 | gefitinib 0 | lapatinib -0.028 | pictilisib 0.01 | crizotinib 0.05 | [5] -0.05 | duvelisib -0.005 | gandotinib -0.005 | tozasertib -0.012 | doramapimod -0.035 | bafetinib -0.05 | [6] 0.044

MSTO1 (UniProt Q9BUK6)
inactive: alvocidib 0.02 | Tubastatin A -0.044 | [1] -0.06 | defactinib 0.022 | [2] -0.027 | encorafenib 0.054 | [3] -0.05 | alisertib 0.007 | [4] -0.003 | gefitinib 0.002 | lapatinib -0.042 | pictilisib -0.005 | crizotinib -0.044 | [5] 0.047 | duvelisib 0.037 | gandotinib -0.091 | tozasertib 0.014 | doramapimod -0.032 | bafetinib -0.038 | [6] -0.052

MRPS33 (UniProt Q9Y291)
inactive: alvocidib 0.068 | Tubastatin A 0.047 | [1] 0.012 | defactinib 0.065 | [2] -0.121 | encorafenib -0.054 | [3] 0.064 | alisertib 0.042 | [4] -0.024 | gefitinib -0.097 | lapatinib 0.035 | pictilisib -0.004 | crizotinib 0.1 | [5] 0.033 | duvelisib -0.002 | gandotinib -0.073 | tozasertib -0.063 | doramapimod -0.03 | bafetinib 0.04 | [6] -0.071

MSL3 (UniProt Q8N5Y2)
inactive: alvocidib -0.095 | Tubastatin A -0.009 | [1] -0.065 | defactinib -0.055 | [2] -0.053 | encorafenib 0.121 | [3] 0.011 | alisertib -0.028 | gefitinib -0.008 | crizotinib 0.008 | [5] -0.104 | duvelisib -0.032 | gandotinib -0.073 | tozasertib -0.124 | doramapimod 0.115 | [6] 0.002

MTPAP (UniProt Q9NVV4)
inactive: alvocidib -0.009 | Tubastatin A -0.053 | [1] -0.027 | defactinib 0.059 | [2] 0.129 | encorafenib 0.028 | [3] -0.118 | alisertib -0.035 | [4] -0.015 | gefitinib 0.024 | lapatinib -0.107 | crizotinib -0.044 | [5] 0.039 | duvelisib -0.006 | gandotinib -0.014 | tozasertib 0.028 | doramapimod 0.084 | [6] -0.085

MRRF (UniProt Q96E11)
inactive: alvocidib 0.068 | Tubastatin A 0.032 | [1] 0 | defactinib 0.023 | [2] -0.02 | encorafenib -0.02 | [3] -0.133 | alisertib 0.005 | [4] -0.021 | gefitinib 0.026 | lapatinib -0.012 | pictilisib 0.017 | crizotinib 0.014 | [5] 0 | duvelisib -0.044 | gandotinib 0.049 | tozasertib -0.015 | doramapimod -0.02 | bafetinib 0 | [6] -0.01

MTHFD1, A0A384N5Y3
inactive: alvocidib 0.036 | Tubastatin A -0.076 | [1] -0.01 | defactinib 0.03 | [2] 0.002 | encorafenib -0.016 | [3] 0.145 | alisertib -0.007 | [4] -0.012 | gefitinib -0.025 | lapatinib -0.008 | pictilisib -0.003 | crizotinib -0.064 | [5] 0.04 | duvelisib 0.015 | gandotinib -0.087 | tozasertib 0.028 | doramapimod 0.043 | bafetinib -0.041 | [6] -0.025

MRPS24 (UniProt Q96EL2)
inactive: alvocidib -0.052 | Tubastatin A -0.039 | [1] -0.093 | defactinib -0.206 | [2] -0.27 | encorafenib -0.016 | [3] 0.004 | alisertib 0.038 | [4] 0.001 | gefitinib -0.082 | lapatinib 0.002 | pictilisib -0.037 | crizotinib 0.035 | [5] -0.076 | duvelisib -0.011 | gandotinib -0.177 | tozasertib 0.175 | doramapimod 0.123 | bafetinib 0.048 | [6] -0.076

MT-ND5 (UniProt P03915)
inactive: alvocidib -0.033 | Tubastatin A 0.132 | [1] 0.045 | defactinib 0.059 | [2] 0.109 | encorafenib 0.01 | [3] -0.022 | alisertib 0.024 | [4] 0.008 | gefitinib -0.079 | lapatinib -0.018 | pictilisib 0.227 | crizotinib -0.045 | [5] 0.058 | duvelisib -0.055 | gandotinib -0.082 | tozasertib -0.057 | doramapimod -0.044 | bafetinib 0.051 | [6] 0.048
